{"source": "PubChem BioAssay AID587", "about": "(National Center for Advancing Translational Sciences (NCATS), 2007)", "note": "Hit rate of the full screen: of about 59,000 compounds, about 35 (0.06%) were called active. Inconclusive means that the source gave no clear call. Such entries were picked first, then a sample of the others. Rule as the data show it: active = max dye-equivalent concentration above about 10 nM; inconclusive = between about 1.1 nM and that limit; inactive = weaker than that.", "data": [{"assay": "qHTS Assay for Spectroscopic Profiling in Texas Red Spectral Region", "details": "Compound fluorescence, Texas Red channel, 547/618 nm; hits give high values", "excerpt": "NIH Molecular Libraries Screening Centers Network [MLSCN] NIH Chemical Genomics Center [NCGC] […] Occasionally, the artifactual effect may originate from the compound#s own spectral or other biophysical properties which generally tend to track its assay concentration. Pre-screening/profiling the library with respect to the compounds# spectral properties should help one exclude false positives early on. While the most informative fluorescent profiling data set is obtained by performing a full excitation and emission scan of each well by using a monochromator-based plate reader, such an approach is practical only on a very limited scale as scanning each well requires long time. An alternative approach, applied here, is to perform plate reader scans using selected excitation and emission wavelength pairs to generate a multidimensional relational database that correlates compound concentration and the respective relative fluorescence intensity at a given wavelength set. A standard curve of Texas Red (TR) present on each plate as six-point concentration series, was used to compute a normalized fluorescence response, termed dye-equivalent concentration, for each compound at each concentration.\nNCGC Assay Protocol Summary: Buffer: 100 mM Tris buffer, pH 8.0 Dye standard plate: The wells in columns 1 through 4 of a Kalypsys polypropylene 1536-well compound plate were filled with standard solutions of fluorophore corresponding to the spectral region of interest. Solutions of TR were placed in the following wells: U1, V1: 3 mM, U2, V2: 300 uM, U3, V3: 30 uM, U4, V4: zero (DMSO), W1, X1: 3 uM, W2, X2: 900 nM, W3, X3: 300 nM, W4, X4: zero (DMSO). Assay Steps: Six uL of buffer were dispensed to 1536-well Greiner black plates. Compounds and dye standards (23 nL) were transferred via Kalypsys PinTool. The plates were incubated for 15 min at room temperature, and then read on ViewLux (Perkin-Elmer) High-throughput CCD imager using 547 nm and 618 nm excitation and emission filter set. Keywords: NIH Roadmap, MLSCN, MLI, MLSMR, qHTS, NCGC, Texas Red, Fluorescent Profiling.", "values": [{"smiles": "CC(C)CCC[C@@H](C)[C@@H]1CC[C@@H]2[C@H]3CC[C@H]4C[C@@H](N)CC[C@@]4(C)[C@@H]3CC[C@]21C", "max dye-equivalent concentration": "inactive"}, {"smiles": "CCN1CCN(CC(O)COCc2ccccc2)CC1", "note": "(configuration not stated)", "max dye-equivalent concentration": "inconclusive: 1.1 nM"}, {"smiles": "O=C(Nc1ccccn1)[C@@H]1CCC(=O)N1C(=O)OCc1ccccc1", "max dye-equivalent concentration": "inconclusive: 1.3 nM"}, {"smiles": "CCOc1ccc(CCNC(=O)C2CCCN(c3nn4c(=O)cc(C)nc4s3)C2)cc1OCC", "note": "(configuration not stated)", "max dye-equivalent concentration": "inconclusive: 1.1 nM"}, {"smiles": "CCn1c(SCC(=O)c2cc(OC)ccc2OC)nnc1C1CC1", "max dye-equivalent concentration": "inconclusive: 2 nM"}, {"smiles": "COc1ccc(-c2c(C(F)(F)F)oc3c(CN4CCN(C)CC4)c(O)ccc3c2=O)cc1", "max dye-equivalent concentration": "inconclusive: 1.3 nM"}, {"smiles": "Cc1cc(N2CCC(C(=O)NC3CCCCC3)CC2)nc(-c2ccccc2)n1", "max dye-equivalent concentration": "inconclusive: 1.8 nM"}, {"smiles": "CCOC(=O)C1CCN(C(=O)c2ccc(Cl)c(Cl)c2)CC1", "max dye-equivalent concentration": "inconclusive: 1.1 nM"}, {"smiles": "O=S(=O)(c1cccc2c(I)cccc12)N1CCCNCC1", "max dye-equivalent concentration": "inconclusive: 1.4 nM"}, {"smiles": "CCOC(=O)CN(C)Cc1c[nH]c2ccccc12", "max dye-equivalent concentration": "inconclusive: 1.1 nM"}, {"smiles": "Cc1cc(=Nc2ccc3c(c2)c(N)cc(C)[n+]3C)nc(N)n1C", "max dye-equivalent concentration": "inconclusive: 1.7 nM"}, {"smiles": "COc1ccc(-c2nnc(SCc3nnc(-c4ccccc4)o3)n2C)cc1OC", "max dye-equivalent concentration": "inconclusive: 2 nM"}, {"smiles": "COC(=O)c1sccc1NC(=O)C1CC2CCC1C2", "note": "(configuration not stated)", "max dye-equivalent concentration": "inconclusive: 1.2 nM"}, {"smiles": "Cc1oc2c(CN(C)C)c(O)ccc2c(=O)c1-c1ccc2ccccc2n1", "max dye-equivalent concentration": "inconclusive: 1.1 nM"}, {"smiles": "O=C(NCCc1ccc(Cl)cc1)C1CCC(=O)N1C1CCCC1", "note": "(configuration not stated)", "max dye-equivalent concentration": "inconclusive: 1.3 nM"}, {"smiles": "c1ccc(CNc2ncncc2-c2ccc3c(c2)OCO3)cc1", "max dye-equivalent concentration": "inactive"}, {"smiles": "CCCCOc1ccc(-c2nnn(CCC(=O)N3CCOCC3)n2)cc1", "max dye-equivalent concentration": "inconclusive: 1.5 nM"}, {"smiles": "CCc1nc(C)cc(N)c1OCc1ccccc1", "max dye-equivalent concentration": "inconclusive: 2.1 nM"}, {"smiles": "CC(C)N(CCCNC(=O)C1CCN(S(=O)(=O)N2CCOCC2)CC1)Cc1ccccc1", "max dye-equivalent concentration": "inconclusive: 1.2 nM"}, {"smiles": "COc1cc(C(=O)NCC(c2ccco2)N2CCCC2)ccc1OCc1c(C)noc1C", "note": "(configuration not stated)", "max dye-equivalent concentration": "inconclusive: 1.3 nM"}, {"smiles": "COc1ccc(OCC(=O)Nc2ncc3c(n2)CC(C)(C)CC3=O)cc1", "max dye-equivalent concentration": "inconclusive: 1.4 nM"}, {"smiles": "Cc1ccc(C)c2[nH]c(=O)c(CN(CCN3CCOCC3)Cc3nnnn3CC3CCCO3)cc12", "note": "(configuration not stated)", "max dye-equivalent concentration": "inconclusive: 2.4 nM"}, {"smiles": "COc1ccccc1Nc1nc(C)cc(=O)[nH]1", "max dye-equivalent concentration": "inconclusive: 2.4 nM"}, {"smiles": "O=C(COC(=O)c1cccs1)NCc1ccc2c(c1)OCO2", "max dye-equivalent concentration": "inconclusive: 1.6 nM"}, {"smiles": "N[C@@H](Cc1ncccn1)C(=O)O", "max dye-equivalent concentration": "inactive"}, {"smiles": "Cc1cc2ccccc2c(=O)n1CC(=O)Nc1ccc2c(c1)OCCO2", "max dye-equivalent concentration": "inconclusive: 1.1 nM"}, {"smiles": "COCCNC(=O)CN(C(=O)CCC(=O)Nc1ccccn1)c1ccc(F)cc1", "max dye-equivalent concentration": "inconclusive: 1.6 nM"}, {"smiles": "C=CCC(NCc1ccco1)c1ccc(OC)cc1OC", "note": "(configuration not stated)", "max dye-equivalent concentration": "inconclusive: 1.1 nM"}, {"smiles": "C=CCn1c(C)cc(C(=O)CSc2nc3ccccc3c(=O)[nH]2)c1C", "max dye-equivalent concentration": "inconclusive: 1.1 nM"}, {"smiles": "Cn1c(CC2C(=O)Nc3ccc(Br)cc32)nc2ccccc2c1=O", "note": "(configuration not stated)", "max dye-equivalent concentration": "inconclusive: 1.1 nM"}, {"smiles": "CCCc1[nH]nc2c1C(c1ccc(OCCN3CCOCC3)c(OC)c1)C(C#N)=C(N)O2", "note": "(configuration not stated)", "max dye-equivalent concentration": "inconclusive: 1.4 nM"}, {"smiles": "O=C(N1CCN(Cc2ccccc2)CC1)C12CC3CC(CC(C3)C1)C2", "max dye-equivalent concentration": "inconclusive: 1.2 nM"}, {"smiles": "CCn1cc(C(=O)NCc2ccco2)c(=O)c2cc(S(=O)(=O)N3CCC(C)CC3)ccc21", "max dye-equivalent concentration": "inconclusive: 1.2 nM"}, {"smiles": "COc1cc(Cl)c(C)cc1NC(=O)CSc1nc2ccccc2o1", "max dye-equivalent concentration": "inconclusive: 2.3 nM"}, {"smiles": "COc1ccc(OC(C)C(=O)N2CCN(c3ccccn3)CC2)cc1", "note": "(configuration not stated)", "max dye-equivalent concentration": "inconclusive: 1.1 nM"}, {"smiles": "CC(=O)Nc1ccccc1C(=O)N1CC2(C)CC1CC(C)(C)C2", "note": "(configuration not stated)", "max dye-equivalent concentration": "inconclusive: 3.4 nM"}, {"smiles": "CCn1nc(NC(=O)c2ccccn2)c2cc3cccc(C)c3nc21", "max dye-equivalent concentration": "inconclusive: 1.2 nM"}, {"smiles": "CCOCCCn1c(=N)c(C(=O)NCc2ccc3c(c2)OCO3)cc2c(=O)n3ccccc3nc21", "max dye-equivalent concentration": "inconclusive: 1.1 nM"}, {"smiles": "CN1CCN(Cc2nc3cccc4c3c([n+]2[O-])-c2ccccc2-4)CC1", "max dye-equivalent concentration": "inactive"}, {"smiles": "CC(=O)N1CCc2cc(S(=O)(=O)CCC(=O)NCc3ccc4c(c3)OCO4)ccc21", "max dye-equivalent concentration": "inconclusive: 1.3 nM"}, {"smiles": "CCCNS(=O)(=O)c1ccc(OCC(=O)NCc2ccc3c(c2)OCO3)cc1", "max dye-equivalent concentration": "inconclusive: 1.2 nM"}, {"smiles": "COc1ccc(S(=O)(=O)N(Cc2cc3ccc(OC)cc3[nH]c2=O)CC2COCCO2)cc1", "note": "(configuration not stated)", "max dye-equivalent concentration": "inconclusive: 2.3 nM"}]}]}
